Test [1] has as its target AR-C (aa 553-918), in vitro translated (human) (UniProt P10275). The experiment in a line: GST pull-down of [35S]-labeled AR fragments.
Test [2] addresses androgen receptor (AR), full-length, human (human) (UniProt P10275). The experiment in a line: GST pull-down of [35S]-labeled AR.
For test [3] the target is unchanged. Kind of test: GST pull-down.
For test [4], the target named is AR-C (aa 553-918), in vitro translated (human) (UniProt P10275). Kind of test: GST pull-down.
Test [5] addresses GAL4 DBD fused full-length ARA54 (human). Kind of test: mammalian two-hybrid.
For test [6] the target is unchanged. The experiment in a line: mammalian two-hybrid, DU145, pG5-CAT.
Test [7] concerns the target androgen receptor (AR), full-length, human (human) (UniProt P10275). The experiment in a line: co-immunoprecipitation of in vitro translated proteins, anti-His-tag antibodies.

Protein sequences, listed by entry. Tags and fused reporters are not part of them. Lines headed by an entry give the natural chain unless they say otherwise; changes in a name come on top.
UniProt P10275: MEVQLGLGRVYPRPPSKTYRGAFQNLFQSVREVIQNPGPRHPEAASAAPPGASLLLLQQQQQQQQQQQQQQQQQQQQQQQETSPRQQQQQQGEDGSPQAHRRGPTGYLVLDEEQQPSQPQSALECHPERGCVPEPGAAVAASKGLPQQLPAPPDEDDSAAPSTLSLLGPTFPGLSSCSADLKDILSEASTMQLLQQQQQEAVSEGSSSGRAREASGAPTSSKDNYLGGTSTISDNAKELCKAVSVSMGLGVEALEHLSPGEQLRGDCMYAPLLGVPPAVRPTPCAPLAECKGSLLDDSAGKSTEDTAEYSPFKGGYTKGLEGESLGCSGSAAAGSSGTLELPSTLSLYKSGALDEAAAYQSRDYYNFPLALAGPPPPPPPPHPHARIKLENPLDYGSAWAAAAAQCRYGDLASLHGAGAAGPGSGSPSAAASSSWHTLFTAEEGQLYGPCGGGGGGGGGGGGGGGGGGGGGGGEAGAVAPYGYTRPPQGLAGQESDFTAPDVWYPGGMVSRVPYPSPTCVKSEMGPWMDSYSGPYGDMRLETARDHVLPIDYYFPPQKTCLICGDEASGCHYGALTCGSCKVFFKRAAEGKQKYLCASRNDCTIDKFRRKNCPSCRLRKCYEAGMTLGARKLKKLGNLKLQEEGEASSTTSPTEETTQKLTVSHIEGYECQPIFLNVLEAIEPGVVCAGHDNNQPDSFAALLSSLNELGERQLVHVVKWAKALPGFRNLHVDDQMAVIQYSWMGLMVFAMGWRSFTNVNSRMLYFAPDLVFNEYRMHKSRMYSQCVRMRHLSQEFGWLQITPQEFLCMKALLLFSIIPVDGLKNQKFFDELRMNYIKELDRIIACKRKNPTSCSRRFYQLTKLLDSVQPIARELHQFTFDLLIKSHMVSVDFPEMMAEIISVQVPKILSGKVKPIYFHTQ

These are yes or no findings as the source states them, for the method shown. For some of these results: In cells and extracts the contact can be indirect. Some entries that bind do so weakly or less than the wild type. For some of these results: Sequences can lack the tags named with a protein.

B1: GST-ARA267N1 (ARA267 aa 1-382) (protein, not shown: a dimerising Fc or GST)
chain: MPLKTRTALSDDPDSSTSTLGNMLELPGTSSSSTSQELPFCQPKKKSTPLKYEVGDLIWAKFKRRPWWPCRICSDPLINTHSKMKVSNRRPYRQYYVEAFGDPSERAWVAGKAIVMFEGRHQFEELPVLRRRGKQKEKGYRHKVPQKILSKWEASVGLAEQYDVPKGSKNRKCIPGSIKLDSEEDMPFEDCTNDPESEHDLLLNGCLKSLAFDSEHSADEKEKPCAKSRARKSSDNPKRTSVKKGHIQFEAHKDERRGKIPENLGLNFISGDISDTQASNELSRIANSLTGSNTAPGSFLFSSCGKNTAKKEFETSNGDSLLGLPEGALISKCSREKNKPQRSLVCGSKVKLCYIGAGDEEKRSDSISICTTSDDGSSDLDP
For B1, the binding entry in test [1], in test [2], in test [3] and in test [4] was “binds” each time.

B2: VP16 AD fused full-length ARA54 (protein)
chain: MSSEDREAQEDELLALASIYDGDEFRKAESVQGGETRIYLDLPQNFKIFVSGNSNECLQNSGFEYTICFLPPLVLNFELPPDYPSSSPPSFTLSGKWLSPTQLSALCKHLDNLWEEHRGSVVLFAWMQFLKEETLAYLNIVSPFELKIGSQKKVQRRTAQASPNTELDFGGAAGSDVDQEEIVDERAVQDVESLSNLIQEILDFDQAQQIKCFNSKLFLCSICFCEKLGSECMYFLECRHVYCKACLKDYFEIQIRDGQVQCLNCPEPKCPSVATPGQVKELVEAELFARYDRLLLQSSLDLMADVVYCPRPCCQLPVMQEPGCTMGICSSCNFAFCTLCRLTYHGVSPCKVTAEKLMDLRNEYLQADEANKRLLDQRYGKRVIQKALEEMESKEWLEKNSKSCPCCGTPIEKLDGCNKMTCTGCMQYFCWICMGSLSRANPYKHFNDPGSPCFNRLFYAVDVDDDIWEDEVED
As to B2, the binding entry in test [5] and in test [6] was “binds” in each case.

B3: ARA54, full-length, in vitro translated (protein)
chain: B2 chain
Turning to B3, the binding entry in test [7] is reported as “binds”.

B4: GST-ARA267N2 (ARA267 aa 1-984) (protein, not shown: a dimerising Fc or GST)
chain: MPLKTRTALSDDPDSSTSTLGNMLELPGTSSSSTSQELPFCQPKKKSTPLKYEVGDLIWAKFKRRPWWPCRICSDPLINTHSKMKVSNRRPYRQYYVEAFGDPSERAWVAGKAIVMFEGRHQFEELPVLRRRGKQKEKGYRHKVPQKILSKWEASVGLAEQYDVPKGSKNRKCIPGSIKLDSEEDMPFEDCTNDPESEHDLLLNGCLKSLAFDSEHSADEKEKPCAKSRARKSSDNPKRTSVKKGHIQFEAHKDERRGKIPENLGLNFISGDISDTQASNELSRIANSLTGSNTAPGSFLFSSCGKNTAKKEFETSNGDSLLGLPEGALISKCSREKNKPQRSLVCGSKVKLCYIGAGDEEKRSDSISICTTSDDGSSDLDPIEHSSESDNSVLEIPDAFDRTENMLSMQKNEKIKYSRFAATNTRVKAKQKPLISNSHTDHLMGCTKSAEPGTETSQVNLSDLKASTLVHKPQSDFTNDALSPKFNLSSSISSENSLIKGGAANQALLHSKSKQPKFRSIKCKHKENPVMAEPPVINEECSLKCCSSDTKGSPLASISKSGKVDGLKLLNNMHEKTRDSSDIETAVVKHVLSELKELSYRSLGEDVSDSGTSKPSKPLLFSSASSQNHIPIEPDYKFSTLLMMLKDMHDSKTKEQRLMTAQNLVSYRSPGRGDCSTNSPVGVSKVLVSGGSTHNSEKKGDGTQNSANPSPSGGDSALSGELSASLPGLLSDKRDLPASGKSRSDCVTRRNCGRSKPSSKLRDAFSAQMVKNTVNRKALKTERKRKLNQLPSVTLDAVLQGDRERGGSLRGGAEDPSKEDPLQIMGHLTSEDGDHFSDVHFDSKVKQSDPGKISEKGLSFENGKGPELDSVMNSENDELNGVNQVVPKKRWQRLNQRRTKPRKRMNRFKEKENSECAFRVLLPSDPVQEGRDEFPEHRTPSASILEEPLTEQNHADCLDSAGPRLNVCDKSSASIGDMEKEPGI
On to B4, for which the binding result in test [1], in test [2], in test [3] and in test [4] was “binds” throughout.

B5: VP16 AD fused C'-ARA54 (amino acids 361-474) (protein)
chain: RNEYLQADEANKRLLDQRYGKRVIQKALEEMESKEWLEKNSKSCPCCGTPIEKLDGCNKMTCTGCMQYFCWICMGSLSRANPYKHFNDPGSPCFNRLFYAVDVDDDIWEDEVED
As to B5, the binding entry in test [6] was “binds”.

B6: GST-ARA267C (ARA267 aa 1716-2427) (protein, not shown: a dimerising Fc or GST)
chain: IRYAQEHDITNFYMLTLDKDRIIDAGPKGNYARFMNHCCQPNCETQKWSVNGDTRVGLFALSDIKAGTELTFNYNLECLGNGKTVCKCGAPNCSGFLGVRPKNQPIATEEKSKKFKKKQQGKRRTQGEITKEREDECFSCGDAGQLVSCKKPGCPKVYHADCLNLTKRPAGKWECPWHQCDICGKEAASFCEMCPSSFCKQHREGMLFISKLDGRLSCTEHDPCGPNPLEPGEIREYVPPPVPLPPGPSTHLAEQSTGMAAQAPKMSDKPPADTNQMLSLSKKALAGTCQRPLLPERPLERTDSRPQPLDKVRDLAGSGTKSQSLVSSQRPLDRPPAVAGPRPQLSDKPSPVTSPSSSPSVRSQPLERPLGTADPRLDKSIGAASPRPQSLEKTSVPTGLRLPPPDRLLITSSPKPQTSDRPTDKPHASLSQRLPPPEKVLSAVVQTLVAKEKALRPVDQNTQSKNRAALVMDLIDLTPRQKERAASPHQVTPQADEKMPVLESSSWPASKGLGHMPRAVEKGCVSDPLQTSGKAAAPSEDPWQAVKSLTQARLLSQPPAKAFLYEPTTQASGRASAGAEQTPGPLSQSPGLVKQAKQMVGGQQLPALAAKSGQSFRSLGKAPASLPTEEKKLVTTEQSPWALGKASSRAGLWPIVAGQTLAQSCWSAGSTQTLAQTCWSLGRGQDPKPEQNTLPALNQAPSSHKCAESEQK
Consider B6, for which the binding entry in test [1], in test [2], in test [3] and in test [4] was “binds” in each case.

The values are drawn from US20060270591A1, “Androgen receptor coregulators” (priority 2002, published 2006).
